# Test results taken from PubChem BioAssay AID493014 (National Center for Advancing Translational Sciences (NCATS), 2011).
# The list shows a part of the results. These are further read-outs of the screen, such as a control signal, another cell line or another target. No call is given for them. The list favours compounds with an active or inconclusive main result. Words in brackets tell the shape of the fitted curve; partial curves, single points and poor fits give uncertain potencies.
# Assay: qHTS Assay to Find Inhibitors of Chronic Active B-Cell Receptor Signaling
# Conditions: ABC-DLBCL IkBa-CBG/CBR reporter, luminescence ratio (green luciferase fused to IkBa over red control in TMD8 lymphoma cells), 4 h
# How it was run: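 Compounds up to 46 uM were incubated four hours with TMD8 cells whose green CBG68 luciferase is fused to IkappaBalpha; red CBR luminescence normalised the signal, and concentration-effect curves were fitted to fusion, red and ratio data.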
# [1] = measured here: CBR red luminescence, cell number
# [2] = measured here: IkBa-CBG green luminescence
SMILES,AC50 [1],AC50 [2]
COc1cc2c(cc1OC)C(c1cc3cc4c(cc3[nH]c1=O)OCO4)N(C(=O)C1CC1)CC2 (stereo unspecified),"32.6 µM [falling, partial curve, poor fit]",
CSc1ccc(-c2cc(=O)c3ccccc3o2)cc1,"0.731 µM [rising, partial curve, poor fit]",
CC(=O)Nc1ccc(OCc2nnc(-c3ccccc3)o2)cc1,"7.94 µM [rising, partial curve, poor fit]",
Cc1ccnc(NC(c2ccsc2)c2ccc3ccc(C)nc3c2O)c1 (stereo unspecified),"3.55 µM [falling, full curve]",
COc1ccc(CC2=CC(=O)c3ccccc3C2=O)cc1,"11.2 µM [falling, partial curve]","3.98 µM [falling, single point]"
CCCCC(c1nnnn1CS(=O)(=O)c1ccc(C)cc1)N1CCN(C)CC1 (stereo unspecified),"35.5 µM [falling, single point]",
O=c1[nH]c(=O)n([C@H]2C[C@H](O)[C@@H](CO)O2)cc1Br,"32.6 µM [rising, single point]",
COc1ccc(Br)c(C(=O)OCC(=O)NC(=O)NC2CCCC2)c1,"4.11 µM [falling, single point]",
CCc1nnc(NC(=O)c2ccc(OCc3c(C)noc3C)c(OC)c2)s1,"0.708 µM [falling, full curve]",
COC1=C(N)C(=O)c2nc(-c3nc(C(=O)O)c(C)c(-c4ccc(OC)c(OC)c4O)c3N)ccc2C1=O,,"1.12 µM [rising, full curve]"
O=C(Nc1ccc(F)cc1)c1csc(Cc2ccccc2)n1,"25.1 µM [falling, partial curve, poor fit]",
Cc1cc2c(c(C)c1Br)C(c1ccc3c(c1)OCO3)CC(=O)O2 (stereo unspecified),"29.1 µM [rising, single point]",
CN(C)c1ccc(/C=N/Nc2cccc(C(=O)O)c2)cc1,"14.1 µM [falling, partial curve, poor fit]",
CC/C(=N\NC(=O)c1ccoc1C)c1ccc(C)o1,"6.51 µM [falling, partial curve, poor fit]",
CCCCC(=O)Nc1ccc(C(=O)N2CCN(C)CC2)cc1,"29.1 µM [rising, single point]",
CCc1c(C)sc(NC(=O)OC)c1C(N)=O,"22.4 µM [rising, single point]",
CCN(CC)C(=O)c1[nH]cnc1C(=O)N[C@@H](CCCCNC(=O)OC(C)(C)C)C(=O)OC(C)(C)C,"2.82 µM [rising, full curve, poor fit]",
COc1ccc(OC)c(NC(=O)COc2ccc(Br)cc2)c1,"6.31 µM [rising, full curve, poor fit]",
O=C(Nc1nc2c(F)c(F)c(F)cc2s1)c1ccco1,"5.62 µM [falling, full curve, poor fit]",
CC1CN(C(=O)c2ccccc2C(=O)c2ncc[nH]2)CC(C)O1 (stereo unspecified),"35.5 µM [falling, single point]",
COc1ccc(/C=N/NC(=O)c2ccc3nc[nH]c3c2)cc1OC,"11.2 µM [falling, single point]",

# A section of the results above, as a working copy:
SMILES,AC50 [1],AC50 [2]
COc1ccc(OC)c(NC(=O)COc2ccc(Br)cc2)c1,"6.31 µM [rising, full curve, poor fit]",
O=C(Nc1nc2c(F)c(F)c(F)cc2s1)c1ccco1,"5.62 µM [falling, full curve, poor fit]",

# The listing continues:

SMILES,AC50 [1],AC50 [2]
CCOc1ccccc1N1CCN(C(=O)Nc2cccc(Cl)c2)CC1,"29.1 µM [rising, single point]",
O=C1CCCC/C1=C/Nc1ccc2c(c1)OCO2,"6.31 µM [rising, single point]",
O=C(CCc1nc(-c2ccccc2)no1)Nc1cc(C(F)(F)F)ccc1Cl,"22.4 µM [rising, single point]",
COc1ccc(NC(=O)C2C3C=CC4(O3)C2C(=O)N(CCN2CCCCC2C)C4C(=O)NC2CCCC(C)C2C)cc1 (stereo unspecified),"14.1 µM [rising, partial curve, poor fit]",
O=C(NC(=S)Nc1ccc(Cc2ccncc2)cc1)c1ccccc1F,"35.5 µM [falling, single point]",
COc1ccc(CCNC(=O)c2cc(=O)[nH]c3ccc(S(=O)(=O)N4CCCCC4C)cc23)cc1OC (stereo unspecified),"0.1 µM [rising, full curve, poor fit]","11.2 µM [falling, single point]"
Cc1ccc(NC(=O)CSc2ccc3c(c2)OCCO3)nc1,"2.91 µM [falling, partial curve]",
COc1cc(NC(C)CCCN)c2ncccc2c1 (stereo unspecified),"18.4 µM [falling, single point]","20.6 µM [rising, partial curve, poor fit]"
COc1cc(CCC(=O)OCC(=O)Nc2ccc(C(N)=O)cc2)cc(OC)c1OC,"22.4 µM [rising, single point]",
Cc1ccc(-n2nnc(-c3cccnc3Cl)n2)cc1,"4.47 µM [rising, partial curve, poor fit]",
O=C(CC1CCCC1)Nc1ccc2c(c1)CCC2,"2.82 µM [rising, partial curve, poor fit]",
CN1Cc2sc(NC(=S)NC(=O)c3ccccc3)c(C#N)c2CC1(C)C,"35.5 µM [falling, single point]",
Cc1ccc(NCN2C(=O)C3C4C=CC(C4)C3C2=O)cc1 (stereo unspecified),"12.6 µM [rising, single point]",
COc1cc(C2Nc3ccc4ncccc4c3C3=C2C(=O)CC(C)(C)C3)cc(OC)c1O (stereo unspecified),"1.64 µM [rising, partial curve]",
COc1ccc(C2c3cccn3CCN2S(=O)(=O)c2ccccc2[N+](=O)[O-])cc1OC (stereo unspecified),"0.355 µM [rising, full curve, poor fit]",
Cc1ccc(C2CCN(C(=S)Nc3cccc(Cl)c3)C2)cc1 (stereo unspecified),"0.708 µM [rising, full curve]",
COc1cccc(NC(=O)COC(=O)c2ccccc2SCC(=O)N2CCCC2)c1,"1.3 µM [rising, full curve, poor fit]",
O=C(N/N=C/c1nn(-c2ccccc2)cc1-c1ccccc1)c1ccncc1,"4.11 µM [rising, full curve, poor fit]",
CCc1nc(Nc2cccc(F)c2)c2oc3ccccc3c2n1,"0.501 µM [falling, full curve]",
O=c1c2ccccc2nc(-c2ccccc2)n1Cc1ccc(Cl)cc1,"0.164 µM [rising, full curve, poor fit]",
CCc1[nH]nc(C(=O)N/N=C/c2ccncc2)c1C,"11.2 µM [falling, single point]",

# Laid out differently: results already given.
SMILES | AC50 [1] | AC50 [2]
O=C(N/N=C/c1nn(-c2ccccc2)cc1-c1ccccc1)c1ccncc1 | 4.11 µM [rising, full curve, poor fit] | 
CCc1nc(Nc2cccc(F)c2)c2oc3ccccc3c2n1 | 0.501 µM [falling, full curve] | 
O=c1c2ccccc2nc(-c2ccccc2)n1Cc1ccc(Cl)cc1 | 0.164 µM [rising, full curve, poor fit] | 

# (next part)

SMILES,AC50 [1],AC50 [2]
CCOc1ccc(C(=O)CC(NCc2cccs2)C(=O)O)cc1 (stereo unspecified),"25.1 µM [falling, single point]",
COc1cc(/C=C2\SC(=O)N(c3ccc(Cl)cc3)C2=O)cc([N+](=O)[O-])c1O,"22.4 µM [falling, single point]",
O=C(CCl)N(CCc1ccccc1)CCc1ccccc1,"35.5 µM [falling, single point]",
Cc1c(C(=O)NNC(=O)c2ccncc2)oc2ccccc12,"11.6 µM [falling, partial curve]",
COC(=O)c1cccc(COC(=O)c2ccc(N(C)C)cc2)c1,"4.11 µM [rising, full curve, poor fit]",
CC(=O)N1N=C(c2ccncc2)OC12CCCCC2,"7.08 µM [rising, partial curve, poor fit]",
CC(C)NC(=O)c1ccc2c(c1)N(CC(=O)NC1CCCCC1)C(=O)C(C)(C)O2,"17.8 µM [rising, partial curve, poor fit]",
O=C(OCc1cc(=O)n2c(n1)sc1ccccc12)c1cccc(O)c1,"1.84 µM [falling, partial curve, poor fit]",
COc1cccc(Cn2c(=O)n(-c3cccc(Cl)c3C)c(=O)c3c4c(sc32)CN(C(C)=O)CC4)c1,"0.0891 µM [rising, full curve, poor fit]",
COc1ccc(-c2nn(-c3ccccc3C)cc2CNCCc2cnc[nH]2)cc1F,"0.501 µM [rising, full curve, poor fit]",
CC1CCC(C(C)C)C(OC(=O)C[n+]2cc(-c3ccc(Cl)cc3)n3c2CCCCC3)C1 (stereo unspecified),"22.4 µM [falling, partial curve]",
C/C(=N\NC(=O)CC#N)c1cc2ccccc2oc1=O,"11.6 µM [falling, partial curve]",
Cc1ccc(C2=NC(C(F)(F)F)(C(F)(F)F)c3c(n(-c4ccc(F)cc4)c(=O)[nH]c3=O)N2)cc1,"0.651 µM [rising, full curve, poor fit]",
COc1cccc(/C=N/NC(=O)c2nnn(-c3nonc3N)c2-c2cccs2)c1,"8.91 µM [falling, partial curve]",
Cc1sc2ncnc(OCC(=O)NCc3cccs3)c2c1C,"6.51 µM [falling, single point]",
Cc1ccc(CNC(=O)CCCc2nc3ccccc3s2)cc1,"29.1 µM [falling, partial curve, poor fit]",
Cc1ccc(-n2ncc3c(NCc4ccc5c(c4)OCO5)ncnc32)c(C)c1,"14.1 µM [falling, partial curve]",
COc1ccc(/C=N/NC(=O)C(=O)/C=C2\NC3(CCCC3)Cc3ccccc32)cc1,"4.61 µM [rising, full curve, poor fit]",
Brc1ccc(/C=N/Nc2ccccn2)cc1,"0.112 µM [rising, full curve, poor fit]",
COc1ccc(CCN2CC(C(=O)N(C)Cc3cccnc3)CC2=O)cc1OC (stereo unspecified),"20.6 µM [falling, single point]",
O=C(c1ccccc1C(F)(F)F)N1CCN(S(=O)(=O)c2ccccc2)CC1,"35.5 µM [falling, single point]",
